Assay results from publication PMC10930102 (Journal of Enzyme Inhibition and Medicinal Chemistry, 2024).

How the values were obtained:
Assay in all cases: SRB antiproliferation assay
Format in all cases: cell-based
MCF7 = conditions: Homo sapiens, 48 h, read-out: Antiproliferative activity (IC50) MCF7
Protocol: (§1) To determine the ability of test compounds to affect the growth of adherent cells, the following cancer cell lines were used: A549 (Bioresource Collection and Research Centre, Taiwan, 60074), HepG2 (BCRC 60025), MCF7 (BCRC 60436), U87MG (BCRC 60360), and H2228 (ATCC CRL-5935). Cells were maintained at 37 °C in a 5% CO2, humidified incubator. Culture media were: RPMI-1640 for A549 and H2228 cells; Dulbecco’s modified Eagle’s medium for HepG2 and MCF7 cells; 90% Minimum essential medium Eagle with 2 mM L-glutamine and Earle’s BSS, 1.5 g/L sodium bicarbonate, 0.1 mM non-essential amino acids, 1.0 mM sodium pyruvate, and 10% foetal bovine serum for U87MG cells. Cells were seeded in 96-well plates at a density of 5 × 10^3 cells/well with appropriate control medium. They were treated for 48 h with test compounds at various concentration in medium containing 5% serum. Antiproliferative activity was determined by sulforhodamine B (SRB) assay. Cells treated with vehicle were used as control (100%). Antiproliferative activity was reported as percentage decrease of optical density at 510 nm for the SRB-protein complex. IC50 values were obtained on the basis of relative antiproliferation under different concentrations of compounds by regression analysis. Cell viability of compound combination was performed using MTS assay using CellTiter 96® AQueous One Solution Cell Proliferation Assay kit (Promega). In brief, 1000 cells were seeded in each well in 96-well plate and incubated for overnight. DMSO or indicated compounds were added and incubated for another 3 days. 20 µL of MTS reagent was added and incubated for 2 h followed by recording the optical density at 490 nm.

A549 = conditions: Homo sapiens, 48 h, read-out: Antiproliferative activity (IC50) A549
Protocol: as §1

U87MG = conditions: Homo sapiens, U-87 MG, 48 h, read-out: Antiproliferative activity (IC50) U87MG
Protocol: as §1

H2228 = conditions: Homo sapiens, NCI-H2228, 48 h, ALK-addicted cells, read-out: Antiproliferative activity (IC50) H2228
Protocol: as §1

HepG2 = conditions: Homo sapiens, 48 h, read-out: Antiproliferative activity (IC50) HepG2
Protocol: as §1

Compound: O=C(CCCCCCC(=O)Nc1ccccc1)NO [SAHA, reference compound]
- IC50 (MCF7): 4.17 ± 0.43 µM
- IC50 (A549): 3.42 ± 0.51 µM
- IC50 (U87MG): 2.09 ± 0.72 µM
- IC50 (H2228): 3.1 ± 0.57 µM
- IC50 (HepG2): 3.38 ± 0.56 µM
